According to paper PMC10163288:
This is one part of the list.

B1: il10ra_site1_sap_11_mot_HHH_b1_05357_000000034_0001_23_39_H_._HHH_b2_04001_0001_0000100005_0000001_0_0001 (protein)
chain: SSSSDELVRRIYELLRELVELVHEGDEEEVERVYEEIKELLEQLGSPVLEKILEMLEKVLNSSSS
B2: il10ra_site1_normal_mot_HHH_b1_06788_af2_000000238_0001_19_36_H_._HHH_b2_00174_0001_0000100003_0000001_0 (protein)
chain: SSSSDVARRVYELAREIAEVINEGDEERARELLEELEELAEEANNFIAKFLVEILKRALESSSSS
B3: il10ra_site1_normal_mot_HHH_b2_06602_000000226_0001_1_16_H_._HHH_b2_07200_af2_0001_0000400022_0000001_0_af2pred_0001 (protein)
chain: SSSSNEEEERLLELYIRAYRLLERGNPEEAEKLVEEAEELAKELGDEAARFALELLKRLLSSSSS
B4: il10ra_site1_normal_mot_1cde5897893f3d1588f92be3b001cdf2_0001_af2_000000130_0001_54_65_H_._HHH_b1_04438_af2_0001_0000700007_0000002_0 (protein)
chain: SSSSDEEELKKLEEELEEALKEGDEELILQLVLELSRLAIQLNDHEATELVLEAARLVKEASSSS
B5: il10ra_site1_normal_mot_HHH_b1_03782_000000126_0001_43_57_H_._HHH_b1_06763_0001_0000200021_0000001_1_af2pred_0001 (protein)
chain: SSSSDKEEEIEELLERIERLQEEGNPEEAFKLIIKAAELIRELGDEELLRELRRVLKRILSSSSS
B6: il10ra_site1_sap_11_mot_HHH_b1_05357_000000034_0001_23_39_H_._HHH_b1_01022_0001_0000300019_0000001_0_0001 (protein)
chain: SSSSSDREEVYRLLEEAIKLRREGNPEEAEKVLERAREIAEELGDRVLLMVIEFLEEQIQRSSSS
B7: il10ra_site1_sap_26_mot_HHH_b2_03531_000000286_0001_43_57_H_._HHH_b2_05322_0001_0000100001_0000001_0_0001_af2pred_0001 (protein)
chain: SSSSDEEELEELIRQIERAIEEGDTEEAQRLLRELVELARKLNDPEVLRIARELSRLIVEKSSSS
B8: il10ra_site1_normal_mot_HHH_b2_00479_000000091_0001_1_12_H_._HHH_b2_01030_af2_0001_0000300029_0000002_0 (protein)
chain: SSSSDEVTDELYKLIREALELRANGNPEEAREILKEAEELAEENNNFTFLFAVRLVLRDLNSSSS
B9: il10ra_site1_sap_25_mot_HHH_b2_03220_af2_000000223_0001_23_40_H_._HHH_b2_06465_0001_0000200025_0000001_0_0001 (protein)
chain: DAHERAKEVAELLREDPEEALEFLEELVERTGDPTLEFMLMALRLMLENNDEEALEALIDLFQRQ
B10: il10ra_site1_sap_27_mot_HHH_b2_02053_af2_000000006_0001_3_19_H_._HHH_b1_03549_0001_0000100010_0000001_0_0001 (protein)
chain: SSSSDRNERVWEILKRILEAIADGDEEEARELLEEAQKLAEEANNWVARFSIRLLERRLELSSSS
B11: il10ra_site1_normal_mot_HHH_b1_03859_af2_000000004_0001_44_57_H_._HHH_b2_00423_0001_0000200004_0000001_0_af2pred_0001 (protein)
chain: SSSSSSEEVVRRLLRAAEFILERGNPEKAKLALRLARFIAERANDPELEELVEEVQERVRSSSSS
B12: il10ra_site1_sap_16_mot_ems_p1-15H-GBL-16H-GABBL-16H_0048_0001_0001_0001_af2_000000267_0001_19_34_H_._5d0551e3c4357af680d60aaa850e4cea_0001_1_0001_0000200002_00 … (protein)
chain: SSSSDEEERELVEAAVRMAKQVSERVVEFLLMAAEMLAEELNDPELRELVEELREYLEELSSSSS
B13: il10ra_site1_sap_13_mot_HHH_b2_06664_af2_000000263_0001_19_36_H_._HHH_b1_05947_0001_0000200013_0000001_0_0001 (protein)
chain: DEEKEEELIELIAEAMGVPPELVREAIKQLERQNGDPRLALEAIARAAWASAPPELREELERALK
B14: il10ra_site1_sap_20_mot_HHH_b1_03314_af2_000000278_0001_42_55_H_._ems_3hM_198_af2_0001_0000400014_0000001_0_0001 (protein)
chain: SSSSSDAQRVWELIREAFEALRQGDEEEARELLEEAEEIAEEANNPVMESVLRLLKKLIDSSSSS
B15: il10ra_site1_normal_mot_HHH_b2_02116_af2_000000165_0001_41_55_H_._HHH_b2_02224_af2_0001_0000100003_0000001_0 (protein)
chain: SSSSSEEEHLVRAALRLAREALREGNPRSARLLVESAALLAEENNNEELLEEAERLREELESSSS
B16: il10ra_site1_sap_22_mot_HHH_b1_05056_000000217_0001_1_20_H_._HHH_b2_05482_0001_0000200018_0000001_0_0001 (protein)
chain: SSSSSDVEELLEEAEKLIEDGNPEEALRVLQEALEAIYRRGDEELLQELWELLKELVERGSSSSS
B17: il10ra_site1_sap_18_mot_HHH_b2_04275_000000272_0001_20_36_H_._HHH_b1_07345_af2_0001_0000300023_0000001_0_0001_af2pred_dldesign_0_af2pred (protein)
chain: EKEKLEKIKKLLEELDTPHARALLYLIDQLESRGYKPSEIIEALKNAAELLGDEEILKAIDEALK
B18: il10ra_site1_normal_mot_HHH_b2_03220_af2_000000223_0001_23_40_H_._HHH_b1_05792_af2_0001_0000100001_0000001_0 (protein)
chain: SSSSSSEENEEIWEIIRRALHIDDPEEAHELLERARELAEEANSEVLLFTIRYLLRQLEGSSSSS
B19: il10ra_site1_normal_mot_126ace9b790e630c13bc3545a3f0f279_0001_af2_000000260_0001_15_29_H_._HEEHE_2663_0001_0000500026_0000001_0_af2pred_0001 (protein)
chain: DEEEIELAIRYLIEFNANPPRVEISVENNEIEVTVEGTDEAARQAQIAVEAFARLKGIPVNVEER
B20: il10ra_site1_sap_17_mot_HHH_b2_04681_000000155_0001_43_57_H_._HHH_b2_07038_af2_0001_0000400013_0000001_0_0001_af2pred_dldesign_0_af2pred (protein)
chain: SSSSSSSDPERILALIRRALEEEDPEKARELLEEALRLAKEAGNEVAIRAAEYLLRQVSSSSSSS
B21: il10ra_site1_sap_24_mot_HHH_b2_00479_000000091_0001_1_12_H_._HHH_b2_07120_0001_0000300019_0000001_1_0001_af2pred_0001 (protein)
chain: SSPEEAEKLLEEAEELARKQNDEEAHEIVEQMKRLLELAEELNNEQALRVILFLARALAEELESS
B22: il10ra_site1_normal_mot_HHH_b2_04945_000000076_0001_1_19_H_._HHH_b2_02643_0001_0000100001_0000002_0 (protein)
chain: SSSTDEVFKFVREVLEEAARLLREGNPEEAERLLEEAEKLAQELGNLALRFSLEHLLRVIRSSSS
B23: il10ra_site1_sap_17_mot_1f0bf248c09923a0581b66a675a8b92c_0001_af2_000000190_0001_52_65_H_._HHH_b2_04143_0001_0000200022_0000001_0_0001 (protein)
chain: SSSSDEEEERLEKLLEEAKELIEEGNPREALEVLLEAVRLAMKLGDEEALQEIWRLVQKLKSSSS
B24: il10ra_site1_normal_mot_HHH_b1_01082_af2_000000031_0001_3_19_H_._HHH_b1_04169_0001_0000100007_0000001_0 (protein)
chain: SSSSDESEEILEEARELIERLLEEGNYEEAYKVLKRAIELLVELGDDEALQELLEFFQRRSSSSS

Target: il10ra, Q13651
Test: yeast display titration

| Binder | apparent Kd |
| --- | --- |
| B1 | inactive: no binding seen |
| B2 | inactive: no binding seen |
| B3 | inactive: no binding seen |
| B4 | inactive: no binding seen |
| B5 | inactive: no binding seen |
| B6 | inactive: no binding seen |
| B7 | inactive: no binding seen |
| B8 | inactive: no binding seen |
| B9 | inactive: no binding seen |
| B10 | inactive: no binding seen |
| B11 | inactive: no binding seen |
| B12 | inactive: no binding seen |
| B13 | inactive: no binding seen |
| B14 | inactive: no binding seen |
| B15 | inactive: no binding seen |
| B16 | inactive: no binding seen |
| B17 | inactive: no binding seen |
| B18 | inactive: no binding seen |
| B19 | inactive: no binding seen |
| B20 | inactive: no binding seen |
| B21 | inactive: > 2810 nM |
| B22 | inactive: no binding seen |
| B23 | inactive: no binding seen |
| B24 | inactive: no binding seen |

A different layout for some results above:
B10
  apparent Kd: inactive: no binding seen
B11
  apparent Kd: inactive: no binding seen
